# Source: PubChem BioAssay AID1487 (National Center for Advancing Translational Sciences (NCATS), 2009)
# The list shows a part of the results. Shown are side measurements of this screen, not its main read-out; they come without a call. Most of these compounds were active or inconclusive in the main read-out, so they are no random draw. Potencies come from curve fits of mixed quality, noted in brackets.
# Assay: qHTS Assay for Modulators of Lamin A Splicing
# Conditions: HeLa LMNA splicing GFP/RFP minigene ratio, 48 h
# How it was run: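 S3 HeLa cells stably expressing lamin A-EGFP splicing minigene plus DsRed2, 600 cells/well, 48 h compound exposure at 37C. Laser-scanning cytometry; analysed as GFP (500-530 nm)/RFP (575-640 nm) total intensity ratio; 0.5% DMSO vehicle.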
# [1] = measured here: GFP splicing reporter channel
# [2] = measured here: RFP viability control channel
Compound,AC50 [1],AC50 [2]
O=Cc1ccc(N2CCCC2)o1,"35.5 µM [rising, single point]",–
CCOCCOc1nc2c(c(=O)n(C)c(=O)n2C)n1CCc1ccccc1,–,"35.5 µM [rising, single point]"
O=C(Nc1ccccc1)N1CCN(c2nc3ccccc3s2)CC1,"35.5 µM [rising, single point]","31.6 µM [rising, single point]"
Cc1cc(N2CCN(S(=O)(=O)c3ccc(C)c(C)c3)CC2)c2ccccc2n1,"12.6 µM [rising, partial curve]","15.8 µM [rising, single point]"
N#Cc1ccc(-c2nc3ccccc3nc2-c2ccccc2)cc1C#N,–,"6.31 µM [rising, single point]"
O=C(c1cn(-c2ccccc2)nc1-c1cccs1)N1CCN(c2ccc(F)cc2)CC1,"12.6 µM [rising, partial curve]","15.8 µM [rising, single point]"
CNC(=O)c1c(NC(=O)/C=C/c2ccccc2)sc2c1CCC2,–,"12.6 µM [rising, single point]"
CCOc1cc(/C=C(/C#N)C(=O)Nc2ccc(O)cc2)cc(Br)c1O,–,"1.26 µM [rising, partial curve]"
Cc1cc(NC(=O)COC(=O)c2ccco2)no1,"0.355 µM [falling, full curve]",–
COC(=O)c1ccc(/C=C/C(=O)c2ccc(OC)c(OC)c2)cc1,"11.2 µM [falling, single point]","20 µM [falling, single point]"
N#CCSc1nc2ccc(N3CCCCC3)cc2c(=O)n1Cc1ccccc1,"3.16 µM [falling, single point]","3.98 µM [falling, partial curve]"
CC(=O)NC1=C(C#N)C(c2ccccc2)c2c(ccc3ccccc23)O1 (centres undefined),–,"28.2 µM [rising, single point]"
O=C(N1CCCCC1)N1CCN(S(=O)(=O)c2ccc(Cl)cc2)CC1,"2 µM [falling, partial curve]",–
CSCCC(NC(C)=O)C(=O)OCC(=O)N(c1ccccc1)c1ccccc1 (centres undefined),–,"7.08 µM [falling, full curve, poor fit]"
COc1ccc(C(=O)/C=C/C(=O)N(Cc2ccc(F)cc2)C(C(=O)NC2CCCCC2)c2ccncc2)c(O)c1 (centres undefined),"31.6 µM [rising, single point]","35.5 µM [rising, single point]"
Cc1ccc(N(CC(=O)NC(C)(C)C)C(=O)CNC(=O)c2cccs2)c(C)c1,"8.91 µM [falling, partial curve, poor fit]","12.6 µM [falling, partial curve, poor fit]"
O=C(c1ccccc1)c1cc([N+](=O)[O-])ccc1N1CCOCC1,–,"2 µM [rising, partial curve, poor fit]"
O=C(c1ccccc1)c1nn(-c2ccccc2)c2nnc(Cc3ccccc3)c(=O)n12,–,"35.5 µM [rising, single point]"

Compound,AC50 [1],AC50 [2]
CNC(=S)NNC(=O)c1cccc(N(C)C)c1,–,"11.2 µM [rising, partial curve]"
CCCC(=O)Nc1nc2ccc(NC(=O)c3c(F)c(F)c(OC)c(F)c3F)cc2s1,–,"39.8 µM [falling, partial curve, poor fit]"
CCCCn1c(SCc2cccc([N+](=O)[O-])c2)nc2ccsc2c1=O,"10 µM [rising, partial curve]","14.1 µM [rising, partial curve]"
Cc1sc2ncnc(NCC(C)(C)N3CCOCC3)c2c1C,"7.08 µM [rising, full curve, poor fit]","8.91 µM [rising, partial curve]"
CC(C)Cn1c(SCC(=O)NC(=O)NC2CCCC2)nc2ccccc21,–,"12.6 µM [rising, partial curve]"
O=C(O)c1ccc(N2CCOCC2)c(N2C(=O)C3C4C=CC(C4)C3C2=O)c1 (centres undefined),"0.0178 µM [rising, full curve, poor fit]",–
Cc1ccc(C(NC(=O)C2CCCCC2)c2c(O)ccc3ccccc23)cc1 (centres undefined),–,"15.8 µM [rising, partial curve]"
COc1ccc(Cl)cc1-n1c(C)cc(C(=O)OCC(=O)N2CC(=O)Nc3ccccc32)c1C,"17.8 µM [rising, single point]","25.1 µM [rising, partial curve]"
CC1CCCC(C)N1C(=O)Cn1c(SCC(=O)Nc2ccc3c(c2)OCO3)nc2ccccc21 (centres undefined),–,"12.6 µM [rising, single point]"
CC(C)(C)c1ccccc1OCCOCCNCc1ccccc1,"11.2 µM [rising, single point]",–
COCCCNC(=S)Nc1ccc(OC(F)F)cc1C,"31.6 µM [falling, single point]",–
COc1ccc(OCCCC(=O)Nc2nccs2)cc1,–,"2 µM [falling, partial curve]"
O=C1CCCc2c1cc(-c1ccccc1)n2-c1ccc(O)cc1,"10 µM [rising, partial curve]","12.6 µM [rising, partial curve]"
Cc1ccc(-n2ncc3c(NCCCN4CCCC4=O)ncnc32)c(C)c1,"1.12 µM [rising, partial curve, poor fit]","11.2 µM [rising, single point]"
COc1ccc(CCc2nnc(CCC(=O)NCc3cc(C(C)C)no3)o2)cc1,"2.24 µM [rising, partial curve]","1.26 µM [rising, partial curve]"
COc1ccc(CNC(=O)C(c2ccc(C)o2)N(Cc2cccs2)C(=O)Cc2cccs2)cc1 (centres undefined),–,"22.4 µM [rising, single point]"
CC(=O)OC(C(=O)NC1CCCCC1)c1ccc(C#N)cc1 (centres undefined),"5.62 µM [rising, single point]",–
CCCC(=O)Nc1ccc2c(c1)nc(CN1CCN(C(=O)OCC)CC1)n2C(C)C,–,"0.251 µM [rising, full curve]"

# A draw from above in order of SMILES length, low to high:
Compound,AC50 [1],AC50 [2]
CNC(=S)NNC(=O)c1cccc(N(C)C)c1,–,"11.2 µM [rising, partial curve]"
CC(C)(C)c1ccccc1OCCOCCNCc1ccccc1,"11.2 µM [rising, single point]",–
CC(C)Cn1c(SCC(=O)NC(=O)NC2CCCC2)nc2ccccc21,–,"12.6 µM [rising, partial curve]"
